Source: paper PMC7414724
Results are given in words; binding and its absence hold for the method and conditions named. In cells and extracts the contact can be indirect. Some binding calls cover weakened binding; strength is not graded here.

By UniProt entry, the sequences of proteins in these tests, tags left out. Where a name states a change or a piece, a line headed by the entry shows the natural chain unless it says otherwise.
UniProt Q9UER7: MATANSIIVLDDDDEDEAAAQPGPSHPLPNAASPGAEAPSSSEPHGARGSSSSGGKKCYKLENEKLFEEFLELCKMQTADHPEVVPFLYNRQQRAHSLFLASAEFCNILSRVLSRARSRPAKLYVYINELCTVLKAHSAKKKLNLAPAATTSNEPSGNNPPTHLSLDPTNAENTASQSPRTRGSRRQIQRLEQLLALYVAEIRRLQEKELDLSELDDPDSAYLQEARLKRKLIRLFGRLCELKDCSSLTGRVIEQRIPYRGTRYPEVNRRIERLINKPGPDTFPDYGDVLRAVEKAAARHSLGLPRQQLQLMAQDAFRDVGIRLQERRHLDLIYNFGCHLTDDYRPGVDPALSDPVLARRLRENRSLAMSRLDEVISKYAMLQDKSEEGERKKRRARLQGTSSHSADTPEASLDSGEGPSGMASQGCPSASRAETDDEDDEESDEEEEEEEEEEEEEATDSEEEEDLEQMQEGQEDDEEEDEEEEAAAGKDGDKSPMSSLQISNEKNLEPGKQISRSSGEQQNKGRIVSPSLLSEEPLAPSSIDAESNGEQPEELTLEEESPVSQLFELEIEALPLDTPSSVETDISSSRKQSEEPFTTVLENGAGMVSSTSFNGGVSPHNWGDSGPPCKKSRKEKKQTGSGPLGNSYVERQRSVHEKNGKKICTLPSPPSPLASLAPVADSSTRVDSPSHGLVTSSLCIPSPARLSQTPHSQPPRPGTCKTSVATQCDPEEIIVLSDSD
UniProt P03126: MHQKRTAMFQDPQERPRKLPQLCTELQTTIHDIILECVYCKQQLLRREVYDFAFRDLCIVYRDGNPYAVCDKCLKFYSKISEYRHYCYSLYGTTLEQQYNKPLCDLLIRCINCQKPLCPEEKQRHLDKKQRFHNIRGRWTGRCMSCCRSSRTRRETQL

Legend:
[1] = molecular target: Death domain-associated protein (Daxx) (human (endogenous in C33A)) (UniProt Q9UER7); assay: co-IP; lysate of C33A cells 48 h after pcDNA3.1(+)/HPV16 E6 transfection; anti-Daxx or anti-E6 antibody at 4 °C overnight, protein A/G agarose, 4 washes with lysate buffer; western blot with anti-Daxx or anti-E6; IgG antibody as negative control
[2] = molecular target: HPV16 E6 protein (human papillomavirus type 16) (UniProt P03126); assay: as above

Row | Substance | binding [1] | binding [2]
1 | HPV16 E6 protein (from UniProt P03126 1-158) | binds | –
2 | Death domain-associated protein (Daxx) (from UniProt Q9UER7 1-740) | – | binds
